Changes are numbered by the printed parent chain. In names and notes the source's numbering stands. Results are given in words; binding and its absence hold for the method and conditions named. In cells and extracts the contact can be indirect. Binding calls can cover weak binding; strength is not graded here.
B1: TG2-W241A (enzyme, UniProt P21980 1-687)
chain: MAEELVLERCDLELETNGRDHHTADLCREKLVVRRGQPFWLTLHFEGRNYEASVDSLTFSVVTGPAPSQEAGTKARFPLRDAVEEGDWTATVVDQQDCTLSLQLTTPANAPIGLYRLSLEASTGYQGSSFVLGHFILLFNAWCPADAVYLDSEEERQEYVLTQQGFIYQGSAKFIKNIPWNFGQFEDGILDICLILLDVNPKFLKNAGRDCSRRSSPVYVGRVVSGMVNCNDDQGVLLGRADNNYGDGVSPMSWIGSVDILRRWKNHGCQRVKYGQCWVFAAVACTVLRCLGIPTRVVTNYNSAHDQNSNLLIEYFRNEFGEIQGDKSEMIWNFHCWVESWMTRPDLQPGYEGWQALDPTPQEKSEGTYCCGPVPVRAIKEGDLSTKYDAPFVFAEVNADVVDWIQQDDGSVHKSINRSLIVGLKISTKSVGRDEREDITHTYKYPEGSSEEREAFTRANHLNKLAEKEETGMAMRIRVGQSMNMGSDFDVFAHITNNTAEEYVCRLLLCARTVSYNGILGPECGTKYLLNLNLEPFSEKSVPLCILYEKYRDCLTESNLIKVRALLVEPVINSYLLAERDLYLENPEIKIRILGEPKQKRKLVAEVSLQNPLPVALEGCTFTVEGAGLTEEQKTVEIPDPVEAGEEVKVRMDLLPLHMGLHKLVVNFESDKLKAVKGFRNVIIGPA
B2: wild-type tissue transglutaminase (TG2), lentivirally expressed in RenCa cells (enzyme, UniProt P21980 1-687)
chain: B1 chain with A241W
B3: tissue transglutaminase (TG2), overexpressed in induced Swiss 3T3 cells (enzyme, UniProt P21980 1-687)
chain: B1 chain with A241W

Assays:
NLRP7 = biological target: T1, NLRP7 (UniProt Q8WX94); experiment: co-IP; Hec1a endometrial cancer cells
T1 sequence: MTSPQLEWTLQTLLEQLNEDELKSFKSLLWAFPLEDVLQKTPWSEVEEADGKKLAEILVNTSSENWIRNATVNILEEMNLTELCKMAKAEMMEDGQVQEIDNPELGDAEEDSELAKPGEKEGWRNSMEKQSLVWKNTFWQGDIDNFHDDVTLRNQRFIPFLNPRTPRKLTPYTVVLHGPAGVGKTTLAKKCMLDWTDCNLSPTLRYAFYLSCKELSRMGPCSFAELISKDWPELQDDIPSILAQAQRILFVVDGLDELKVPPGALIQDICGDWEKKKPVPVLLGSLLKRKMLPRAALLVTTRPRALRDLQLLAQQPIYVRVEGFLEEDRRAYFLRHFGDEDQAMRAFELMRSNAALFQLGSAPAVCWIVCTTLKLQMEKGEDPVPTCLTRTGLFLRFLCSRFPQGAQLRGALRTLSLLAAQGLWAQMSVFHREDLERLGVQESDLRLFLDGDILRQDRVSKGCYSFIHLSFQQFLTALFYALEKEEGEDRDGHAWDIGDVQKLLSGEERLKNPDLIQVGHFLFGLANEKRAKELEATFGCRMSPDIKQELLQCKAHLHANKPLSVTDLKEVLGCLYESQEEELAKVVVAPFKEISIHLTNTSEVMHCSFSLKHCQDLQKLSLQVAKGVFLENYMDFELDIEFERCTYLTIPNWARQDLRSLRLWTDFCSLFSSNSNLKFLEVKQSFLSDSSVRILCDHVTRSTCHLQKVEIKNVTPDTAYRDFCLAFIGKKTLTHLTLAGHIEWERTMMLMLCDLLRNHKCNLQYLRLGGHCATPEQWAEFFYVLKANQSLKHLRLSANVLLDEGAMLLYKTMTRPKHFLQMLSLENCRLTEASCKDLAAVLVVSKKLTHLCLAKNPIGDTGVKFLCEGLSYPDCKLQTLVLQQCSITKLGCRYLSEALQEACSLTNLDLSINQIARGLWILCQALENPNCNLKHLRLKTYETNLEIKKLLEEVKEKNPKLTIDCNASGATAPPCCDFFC

[1] = biological target: PDGFR (RenCa cells) (mouse (endogenous in RenCa)); experiment: co-IP; RenCa mouse RCC cells transduced with lentiviral TG2 constructs
[2] = biological target: platelet-derived growth factor beta-receptor (mouse (endogenous in Swiss 3T3)); experiment: co-IP; Swiss 3T3 cells induced to overexpress TG2, treated with the NO donor SNAP for 48 hours; with SNAP less TG2 complex with ITGβ-1 and SDC-4, more with PDGFR-β

| Molecule | binding [1] | other results |
| --- | --- | --- |
| Rab5 | – | binding (NLRP7): binds |
| B1 | binds | – |
| B2 | binds | – |
| B3 | – | binding [2]: binds |

Reference: publication PMC6925586
